Test results as given in publication PMC9000958, “Sticks and Stones, a conserved cell surface ligand for the Type IIa RPTP Lar, regulates neural circuit wiring in Drosophila” (eLife, 2022).
No constants are given. Whether binding was seen depends on the method and setting. Some binding calls cover weakened binding; strength is not graded here. Sequences can lack the tags named with a protein.

Chains of the proteins cited; added tags and fusions are not shown. Residues count along the entry.
UniProt P10586, residues 30-1263: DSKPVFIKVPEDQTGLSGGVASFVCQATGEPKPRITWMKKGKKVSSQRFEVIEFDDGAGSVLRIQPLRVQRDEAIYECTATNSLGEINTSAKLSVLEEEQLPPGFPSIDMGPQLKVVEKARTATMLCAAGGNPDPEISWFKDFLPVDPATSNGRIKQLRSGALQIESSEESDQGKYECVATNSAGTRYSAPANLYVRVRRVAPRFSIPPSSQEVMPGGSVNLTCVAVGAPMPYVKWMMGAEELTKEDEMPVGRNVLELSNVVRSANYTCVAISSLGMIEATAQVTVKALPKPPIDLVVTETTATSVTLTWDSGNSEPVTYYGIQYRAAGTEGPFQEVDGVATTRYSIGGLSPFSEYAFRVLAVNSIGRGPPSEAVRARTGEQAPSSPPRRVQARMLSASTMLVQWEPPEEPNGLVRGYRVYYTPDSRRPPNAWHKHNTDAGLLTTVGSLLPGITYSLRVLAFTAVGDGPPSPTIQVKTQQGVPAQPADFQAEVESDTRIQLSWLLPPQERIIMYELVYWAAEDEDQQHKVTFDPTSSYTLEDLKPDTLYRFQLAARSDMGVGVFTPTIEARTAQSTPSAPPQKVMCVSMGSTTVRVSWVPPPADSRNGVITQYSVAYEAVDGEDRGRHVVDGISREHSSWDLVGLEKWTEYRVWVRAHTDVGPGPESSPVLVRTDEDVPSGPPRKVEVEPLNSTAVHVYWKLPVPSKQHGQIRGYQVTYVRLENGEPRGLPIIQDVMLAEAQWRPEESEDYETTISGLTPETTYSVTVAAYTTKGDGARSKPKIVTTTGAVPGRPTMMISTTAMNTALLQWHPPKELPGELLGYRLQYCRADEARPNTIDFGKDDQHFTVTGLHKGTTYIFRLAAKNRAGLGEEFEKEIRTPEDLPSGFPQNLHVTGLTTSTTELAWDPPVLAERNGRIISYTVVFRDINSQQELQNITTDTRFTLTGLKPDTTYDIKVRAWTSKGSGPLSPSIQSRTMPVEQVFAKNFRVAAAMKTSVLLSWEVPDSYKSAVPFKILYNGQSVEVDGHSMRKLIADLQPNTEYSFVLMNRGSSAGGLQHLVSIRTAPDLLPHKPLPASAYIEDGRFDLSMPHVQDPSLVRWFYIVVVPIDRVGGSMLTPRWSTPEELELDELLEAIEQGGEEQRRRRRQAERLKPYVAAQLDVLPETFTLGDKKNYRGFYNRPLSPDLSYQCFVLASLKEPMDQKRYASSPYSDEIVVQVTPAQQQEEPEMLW

T1: Nephrin-Fc fusion protein (human) (UniProt O60500)
T1 sequence: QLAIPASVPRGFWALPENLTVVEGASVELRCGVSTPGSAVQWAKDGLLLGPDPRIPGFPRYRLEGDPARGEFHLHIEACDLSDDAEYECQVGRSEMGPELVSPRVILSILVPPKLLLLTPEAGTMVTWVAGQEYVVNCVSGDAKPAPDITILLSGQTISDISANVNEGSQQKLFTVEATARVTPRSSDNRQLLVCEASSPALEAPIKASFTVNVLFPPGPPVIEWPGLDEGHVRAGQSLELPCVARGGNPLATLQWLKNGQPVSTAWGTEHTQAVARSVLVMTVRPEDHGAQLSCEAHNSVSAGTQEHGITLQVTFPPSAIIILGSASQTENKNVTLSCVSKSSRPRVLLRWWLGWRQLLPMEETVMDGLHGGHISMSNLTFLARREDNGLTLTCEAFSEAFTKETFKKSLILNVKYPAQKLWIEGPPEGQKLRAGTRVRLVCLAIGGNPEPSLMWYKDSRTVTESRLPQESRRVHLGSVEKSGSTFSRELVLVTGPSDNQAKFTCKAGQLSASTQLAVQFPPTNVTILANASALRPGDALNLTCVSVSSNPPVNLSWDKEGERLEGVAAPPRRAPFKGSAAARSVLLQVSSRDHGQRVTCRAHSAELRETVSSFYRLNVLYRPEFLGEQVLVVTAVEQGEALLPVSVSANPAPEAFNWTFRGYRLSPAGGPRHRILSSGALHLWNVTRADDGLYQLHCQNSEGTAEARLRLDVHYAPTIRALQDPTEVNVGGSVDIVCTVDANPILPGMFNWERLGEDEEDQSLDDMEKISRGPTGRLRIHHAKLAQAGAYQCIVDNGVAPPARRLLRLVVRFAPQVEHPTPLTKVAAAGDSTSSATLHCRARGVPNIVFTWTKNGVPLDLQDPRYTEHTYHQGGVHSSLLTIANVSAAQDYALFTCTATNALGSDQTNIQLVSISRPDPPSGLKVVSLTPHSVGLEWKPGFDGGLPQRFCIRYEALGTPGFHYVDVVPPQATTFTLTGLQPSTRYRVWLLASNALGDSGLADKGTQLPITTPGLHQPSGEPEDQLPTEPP


Molecular target: T1, Nephrin-Fc fusion protein (human)
Experiment: ELISA; ECIA: Fc fusion bait (1x supernatant) captured by anti-human IgG (Fc-specific) on plate; AP5 fusion prey (1x supernatant) pre-clustered with anti-AP:biotin, overnight at room temperature; streptavidin:HRP, TMB, absorbance at 450 nm

Molecule | binding
PTPRF-AP5 fusion protein (from UniProt P10586 30-1263) (domain or fragment) | binds
PTPRD-AP5 fusion protein (domain or fragment, human, UniProt P23468 21-1265, looked up, human PTPRD extracellular domain, amplified from a full-length cDNA; also called PTPδ; source: Drosophila S2 cells, transfected, supernatant) ETPPRFTRTPVDQTGVSGGVASFICQATGDPRPKIVWNKKGKKVSNQRFEVIEFDDGSGSVLRIQPLRTPRDEAIYECVASNNVGEISVSTRLTVLREDQIPRGFPTIDMGPQLKVVERTRTATMLCAASGNPDPEITWFKDFLPVDTSNNNGRIKQLRSESIGGTPIRGALQIEQSEESDQGKYECVATNSAGTRYSAPANLYVRELREVRRVPPRFSIPPTNHEIMPGGSVNITCVAVGSPMPYVKWMLGAEDLTPEDDMPIGRNVLELNDVRQSANYTCVAMSTLGVIEAIAQITVKALPKPPGTPVVTESTATSITLTWDSGNPEPVSYYIIQHKPKNSEELYKEIDGVATTRYSVAGLSPYSDYEFRVVAVNNIGRGPPSEPVLTQTSEQAPSSAPRDVQARMLSSTTILVQWKEPEEPNGQIQGYRVYYTMDPTQHVNNWMKHNVADSQITTIGNLVPQKTYSVKVLAFTSIGDGPLSSDIQVITQTGVPGQPLNFKAEPESETSILLSWTPPRSDTIANYELVYKDGEHGEEQRITIEPGTSYRLQGLKPNSLYYFRLAARSPQGLGASTAEISARTMQSKPSAPPQDISCTSPSSTSILVSWQPPPVEKQNGIITEYSIKYTAVDGEDDKPHEILGIPSDTTKYLLEQLEKWTEYRITVTAHTDVGPGPESLSVLIRTNEDVPSGPPRKVEVEAVNSTSVKVSWRSPVPNKQHGQIRGYQVHYVRMENGEPKGQPMLKDVMLADAQWEFDDTTEHDMIISGLQPETSYSLTVTAYTTKGDGARSKPKLVSTTGAVPGKPRLVINHTQMNTALIQWHPPVDTFGPLQGYRLKFGRKDMEPLTTLEFSEKEDHFTATDIHKGASYVFRLSARNKVGFGEEMVKEISIPEEVPTGFPQNLHSEGTTSTSVQLSWQPPVLAERNGIITKYTLLYRDINIPLLPMEQLIVPADTTMTLTGLKPDTTYDVKVRAHTSKGPGPYSPSVQFRTLPVDQVFAKNFHVKAVMKTSVLLSWEIPENYNSAMPFKILYDDGKMVEEVDGRATQKLIVNLKPEKSYSFVLTNRGNSAGGLQHRVTAKTAPDVLRTKPAFIGKTNLDGMITVQLPEVPANENIKGYYIIIVPLKKSRGKFIKPWESPDEMELDELLKEISRKRRSIRYGREVELKPYIAAHFDVLPTEFTLGDDKHYGGFTNKQLQSGQEYVFFVLAVMEHAESKMYATSPYSDPVVSMDLDPQPITDEEE | binds
